Experimental data from article doi:10.1101/2021.12.28.474342.
Results are given in words; binding and its absence hold for the method and conditions named. In cells and extracts the contact can be indirect. Some binding calls cover weakened binding; strength is not graded here. Tags and fused reporters may be left off the sequences shown.

Sequences of proteins named here, by UniProt entry; tags and fusion partners are left off.
UniProt O08573: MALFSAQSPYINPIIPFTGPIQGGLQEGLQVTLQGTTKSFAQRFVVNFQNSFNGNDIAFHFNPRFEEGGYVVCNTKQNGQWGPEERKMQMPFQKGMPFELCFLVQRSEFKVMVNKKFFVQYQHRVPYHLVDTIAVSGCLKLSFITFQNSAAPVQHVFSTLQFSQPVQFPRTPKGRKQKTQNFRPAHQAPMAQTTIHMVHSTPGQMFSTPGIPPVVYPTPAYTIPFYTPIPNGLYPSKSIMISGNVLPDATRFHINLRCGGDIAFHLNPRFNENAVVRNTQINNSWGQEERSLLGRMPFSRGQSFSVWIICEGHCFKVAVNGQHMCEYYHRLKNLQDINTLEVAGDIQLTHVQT

Target: T1, GFP-mGBP2 WT (full-length mGBP2 with N-terminal GFP) (mouse) (UniProt Q9Z0E6)
T1 sequence: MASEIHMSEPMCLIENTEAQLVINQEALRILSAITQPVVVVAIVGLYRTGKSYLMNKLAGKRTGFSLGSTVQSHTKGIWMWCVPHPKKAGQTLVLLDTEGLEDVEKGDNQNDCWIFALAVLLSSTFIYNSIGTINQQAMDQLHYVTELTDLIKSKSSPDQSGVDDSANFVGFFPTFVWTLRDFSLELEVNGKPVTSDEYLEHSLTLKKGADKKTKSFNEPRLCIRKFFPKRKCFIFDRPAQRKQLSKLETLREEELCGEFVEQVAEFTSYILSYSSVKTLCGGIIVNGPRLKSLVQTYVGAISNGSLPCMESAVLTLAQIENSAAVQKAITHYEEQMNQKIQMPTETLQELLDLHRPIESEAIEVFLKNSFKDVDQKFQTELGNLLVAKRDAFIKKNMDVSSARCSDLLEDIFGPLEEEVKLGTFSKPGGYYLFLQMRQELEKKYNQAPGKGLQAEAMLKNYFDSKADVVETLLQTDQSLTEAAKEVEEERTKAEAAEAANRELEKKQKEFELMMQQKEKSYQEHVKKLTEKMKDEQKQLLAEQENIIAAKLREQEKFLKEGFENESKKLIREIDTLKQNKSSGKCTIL
Assay: co-IP

“mCherry-Gal9 (Galectin 9 with N-terminal mCherry) (from UniProt O08573 1-353)” was tested. Which binding did it give?
Its binding is “binds”.
